Experimental data: PubChem BioAssay AID743454 (Peter MacCallum Cancer Centre, 2014)
This is a random part of about 18,000 deposited reagents. 450 of them (2.5%) were called active. 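Single biological run; no consistent viability z cut-off exists, so the class columns, not z-scores, define the calls.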 Entries without a mark were called inactive. No sequences are given here.

- Assay: 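Search for knock-downs that restore vorinostat killing in resistant colon cancer cells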 (primary screen)
- Cell system: human HCT116-VR colon cancer cells, selected for vorinostat resistance
- Knock-down reagent: siRNA pool against human genes, 40 nM siRNA pool
- Time to read-out: vorinostat for 24 h, read-out about 72 h after transfection
- Challenge: vorinostat at 2.5 µM final
- Measurement: 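Two measures, CellTiter-Fluor viability and luminescent caspase 3/7 activity, each as fold change against same-plate mock wells, mean of duplicates, then screen-wide robust z-score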
- Direction: viability robust z-score: higher = more viable cells than screen typical; caspase robust z-score: higher = more caspase 3/7 activity than screen typical
- Active means: 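a knock-down is a hit when classed RV1 or RV2 for lowered viability, or CA1 or CA2 for caspase activation; those lethal without drug were dropped; hits were retested singly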

The first 3 records, to show the layout:
Gene | viability hit class | caspase hit class | viability robust z-score | caspase robust z-score
L3MBTL1 (GeneID 26013) | no change | no change | 1.2 | -0.77
NKAPD1 (GeneID 55216) | no change | no change | -0.54 | 0.64
FGF14 (GeneID 2259) | no change | no change | -1.17 | -0.15

The listing, from the first entry:
Gene | viability hit class | caspase hit class | viability robust z-score | caspase robust z-score
L3MBTL1 (GeneID 26013) | no change | no change | 1.2 | -0.77
NKAPD1 (GeneID 55216) | no change | no change | -0.54 | 0.64
FGF14 (GeneID 2259) | no change | no change | -1.17 | -0.15
AQP4 (GeneID 361) | no change | no change | 0.4 | -1.17
ZMAT2 (GeneID 153527) | no change | no change | -1.63 | 0.93
ZNF449 (GeneID 203523) | no change | no change | 1.01 | -0.9
BIN3 (GeneID 55909) | no change | no change | 0.12 | -0.68
PDLIM5 (GeneID 10611) | no change | no change | 1.36 | 1.46
TTK (GeneID 7272) | no change | no change | -1.84 | 3.99
KRTAP5-4 (GeneID 387267) | no change | no change | -0.15 | 0.78
DNAAF2 (GeneID 55172) | no change | no change | -0.48 | 0.1
ADCK2 (GeneID 90956) | no change | no change | 0.26 | 0.46
SCARA3 (GeneID 51435) | no change | no change | -0.5 | -0.96
NUDT6 (GeneID 11162) | no change | no change | 0.13 | -0.24
RCBTB2 (GeneID 1102) | no change | no change | -0.11 | -0.94
TIMM29 (GeneID 90580) | no change | no change | -0.38 | 1.51
SLC16A5 (GeneID 9121) | no change | no change | -0.68 | 4.15
LAMB3 (GeneID 3914) | no change | no change | -2.09 | 0.78
STIMATE (GeneID 375346) | no change | no change | 1.34 | -0.97
SYT6 (GeneID 148281) | no change | no change | -0.33 | 1.44
KANSL3 (GeneID 55683) | no change | no change | 0.66 | -0.17
NELL1 (GeneID 4745) | no change | no change | 0.68 | -0.76
LAPTM4A (GeneID 9741) | no change | no change | -1.79 | 1.54
HLA-DMB (GeneID 3109) | no change | no change | 1.29 | -0.56
LNP1 (GeneID 348801) | no change | no change | -0.31 | -0.02
BBLN (GeneID 79095) | no change | no change | -0.32 | -0.2
ELOA2 (GeneID 51224) | no change | no change | 0.48 | -0.09
SRSF3 (GeneID 6428) | no change | no change | -3.04 | 3.58
LINC00518 (GeneID 221718) | no change | no change | -0.5 | 1.07
CD46 (GeneID 4179) | no change | no change | 0.37 | -0.64
RMDN2 (GeneID 151393) | no change | no change | -0.38 | 0.08
TMEM91 (GeneID 641649) | no change | no change | 1.12 | 2.09
DDX17 (GeneID 10521) | no change | no change | -0.32 | 2.33
DHRS2 (GeneID 10202) | no change | no change | 1.72 | -0.13
PRAMEF10 (GeneID 343071) | no change | no change | 0.3 | 2.64
FRMD8 (GeneID 83786) | no change | no change | 0.9 | -0.21
HTR1B (GeneID 3351) | no change | no change | 1.31 | -0.36
RGS16 (GeneID 6004) | no change | no change | -1.33 | 0.26
WDR48 (GeneID 57599) | no change | no change | -1.48 | -0.97
MRO (GeneID 83876) | no change | no change | -0.14 | 0.22
ARL3 (GeneID 403) | no change | no change | 0.74 | 0.16
HOXC8 (GeneID 3224) | no change | no change | -0.86 | -0.68
STX6 (GeneID 10228) | no change | no change | -1.95 | 0.4
WDR86 (GeneID 349136) | no change | no change | 1.4 | -0.4
ACTR5 (GeneID 79913) | no change | no change | 0.6 | -0.81
MAN1B1 (GeneID 11253) | no change | no change | 0.47 | 1.36
APBB1IP (GeneID 54518) | no change | no change | -1.08 | -0.31
GPALPP1 (GeneID 55425) | no change | no change | 0.86 | -0.86
TMEM33 (GeneID 55161) | no change | no change | -0.12 | 2.95
ANKRD29 (GeneID 147463) | no change | no change | 0.46 | -0.14
PTPRF (GeneID 5792) | no change | no change | 0.46 | -0.25
CUL5 (GeneID 8065) | no change | no change | 1.58 | 1.17
ZNF654 (GeneID 55279) | no change | no change | 0.32 | 0.94
ORMDL2 (GeneID 29095) | no change | no change | -1.93 | 1.64
ANGPTL4 (GeneID 51129) | no change | no change | -0.06 | 1.64
FBXO41 (GeneID 150726) | no change | no change | -0.62 | -0.36
BORCS8-MEF2B (GeneID 4207) | no change | no change | -2.14 | 4.15
